# According to the supplement of paper PMC8728848:
# The list shows a part of the results.
# B1: HHL-2 (Homo sapiens), P07307 (protein)
# chain: MAKDFQDIQQLSSEENDHPFHQGEGPGTRRLNPRRGNPFLKGPPPAQPLAQRLCSMVCFSLLALSFNILLLVVICVTGSQSEGHRGAQLQAELRSLKEAFSNFSSSTLTEVQAISTHGGSVGDKITSLGAKLEKQQQDLKADHDALLFHLKHFPVDLRFVACQMELLHSNGSQRTCCPVNWVEHQGSCYWFSHSGKAWAEAEKYCQLENAHLVVINSWEEQKFIVQHTNPFNTWIGLTDSDGSWKWVDGTDYRHNYKNWAVTQPDNWHGHELGGSEDCVEVQPDGRWNDDFCLQVYRWVCEKRRNATGEVA
# Assays:
# Experiment in all cases: glycan array binding signal (z-score within array); higher = stronger binding
# Conditions in all cases: glycan notation: IUPAC condensed, linker removed
# Gal(a1-3)GalNAc = target: Gal(a1-3)GalNAc
# How it was run: (§1)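 Arrays were curated from the Consortium for Functional Glycomics database, 3228 in total, and kept only where the protein sequence was available. Binding is expressed as a within-array Z-score. This score was averaged across arrays of the same protein sequence at different concentrations or buffers and across linkers, and negative values can be read as non-binding.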
# [1] = target: Gal(a1-3)[Gal(a1-4)]Gal(b1-4)GlcNAc
# How it was run: as §1
# Gal(a1-4)Gal(b1-4)Glc = target: Gal(a1-4)Gal(b1-4)Glc
# How it was run: as §1
# Gal(a1-4)Gal(b1-4)GlcNAc = target: Gal(a1-4)Gal(b1-4)GlcNAc
# How it was run: as §1
# [2] = target: Gal(a1-4)Gal(b1-4)GlcNAc(b1-3)Gal(b1-4)Glc
# How it was run: as §1
# Gal(a1-4)GlcNAc = target: Gal(a1-4)GlcNAc
# How it was run: as §1
# Gal(a1-6)Glc = target: Gal(a1-6)Glc
# How it was run: as §1
# Gal(b1-2)Gal = target: Gal(b1-2)Gal
# How it was run: as §1
# Gal(b1-3)Gal = target: Gal(b1-3)Gal
# How it was run: as §1
# Gal(b1-3)Gal(b1-4)GlcNAc = target: Gal(b1-3)Gal(b1-4)GlcNAc
# How it was run: as §1
# [3] = target: Gal(b1-3)Gal(b1-4)GlcNAc(b1-2)Man(a1-3)[Gal(b1-3)Gal(b1-4)GlcNAc(b1-2)Man(a1-6)]Man(b1-4)GlcNAc(b1-4)GlcNAc
# How it was run: as §1
# Gal(b1-3)GalNAc = target: Gal(b1-3)GalNAc
# How it was run: as §1
# [4] = target: Gal(b1-3)GalNAc(a1-3)[Fuc(a1-2)]Gal(b1-4)Glc
# How it was run: as §1
# [5] = target: Gal(b1-3)GalNAc(a1-3)[Fuc(a1-2)]Gal(b1-4)GlcNAc
# How it was run: as §1
# [6] = target: Gal(b1-3)GalNAc(b1-3)Gal(a1-4)Gal(b1-4)Glc
# How it was run: as §1
# [7] = target: Gal(b1-3)GalNAc(b1-4)Gal(b1-4)Glc
# How it was run: as §1
# [8] = target: Gal(b1-3)GalNAc(b1-4)[Neu5Ac(a2-3)]Gal(b1-4)Glc
# How it was run: as §1
# Gal(b1-3)GlcNAc = target: Gal(b1-3)GlcNAc
# How it was run: as §1
# [9] = target: Gal(b1-3)GlcNAc(b1-2)Man(a1-3)[Gal(b1-3)GlcNAc(b1-2)Man(a1-6)]Man(b1-4)GlcNAc(b1-4)GlcNAc
# How it was run: as §1
# [10] = target: Gal(b1-3)GlcNAc(b1-2)Man(a1-3)[Gal(b1-3)GlcNAc(b1-2)Man(a1-6)]Man(b1-4)GlcNAc(b1-4)[Fuc(a1-6)]GlcNAc
# How it was run: as §1
# [11] = target: Gal(b1-3)GlcNAc(b1-3)Gal(b1-3)GlcNAc
# How it was run: as §1
# [12] = target: Gal(b1-3)GlcNAc(b1-3)Gal(b1-4)Glc
# How it was run: as §1
# [13] = target: Gal(b1-3)GlcNAc(b1-3)Gal(b1-4)GlcNAc
# How it was run: as §1
# [14] = target: Gal(b1-3)[Fuc(a1-4)]GlcNAc
# How it was run: as §1
# [15] = target: Gal(b1-3)[Fuc(a1-4)]GlcNAc(b1-2)Man(a1-3)[Gal(b1-3)[Fuc(a1-4)]GlcNAc(b1-2)Man(a1-6)]Man(b1-4)GlcNAc(b1-4)GlcNAc
# How it was run: as §1
# [16] = target: Gal(b1-3)[Fuc(a1-4)]GlcNAc(b1-2)Man(a1-3)[Gal(b1-3)[Fuc(a1-4)]GlcNAc(b1-2)Man(a1-6)]Man(b1-4)GlcNAc(b1-4)[Fuc(a1-6)]GlcNAc
# How it was run: as §1
# [17] = target: Gal(b1-3)[Fuc(a1-4)]GlcNAc(b1-3)Gal(b1-3)[Fuc(a1-4)]GlcNAc
# How it was run: as §1
# [18] = target: Gal(b1-3)[Fuc(a1-4)]GlcNAc(b1-3)Gal(b1-4)GlcNAc
# How it was run: as §1
# [19] = target: Gal(b1-3)[Fuc(a1-4)]GlcNAc(b1-3)Gal(b1-4)[Fuc(a1-3)]GlcNAc
# How it was run: as §1
# [20] = target: Gal(b1-3)[GlcNAc(b1-6)]GalNAc
# How it was run: as §1
# [21] = target: Gal(b1-3)[Neu5Ac(a2-6)]GalNAc
# How it was run: as §1
# [22] = target: Gal(b1-3)[Neu5Ac(a2-6)]GlcNAc(b1-6)Gal(b1-4)Glc
# How it was run: as §1
# [23] = target: Gal(b1-3)[Neu5Ac(b2-6)]GalNAc
# How it was run: as §1
# [24] = target: Gal(b1-4)GalNAc(a1-3)[Fuc(a1-2)]Gal(b1-4)GlcNAc
# How it was run: as §1
# [25] = target: Gal(b1-4)GalNAc(b1-3)[Fuc(a1-2)]Gal(b1-4)GlcNAc
# How it was run: as §1
# Gal(b1-4)Glc = target: Gal(b1-4)Glc
# How it was run: as §1
# Gal(b1-4)Glc6S = target: Gal(b1-4)Glc6S
# How it was run: as §1
# Gal(b1-4)GlcNAc = target: Gal(b1-4)GlcNAc
# How it was run: as §1
binder,measurement,setting,value
B1,glycan array binding signal (z-score),Gal(a1-3)GalNAc,0.409
same,glycan array binding signal (z-score),[1],1.67
same,glycan array binding signal (z-score),Gal(a1-4)Gal(b1-4)Glc,2.09
same,glycan array binding signal (z-score),Gal(a1-4)Gal(b1-4)GlcNAc,-0.422
same,glycan array binding signal (z-score),[2],-0.794
same,glycan array binding signal (z-score),Gal(a1-4)GlcNAc,-0.168
same,glycan array binding signal (z-score),Gal(a1-6)Glc,0.65
same,glycan array binding signal (z-score),Gal(b1-2)Gal,-0.13
same,glycan array binding signal (z-score),Gal(b1-3)Gal,0.298
same,glycan array binding signal (z-score),Gal(b1-3)Gal(b1-4)GlcNAc,-0.187
same,glycan array binding signal (z-score),[3],-0.335
same,glycan array binding signal (z-score),Gal(b1-3)GalNAc,-0.603
same,glycan array binding signal (z-score),[4],1.96
same,glycan array binding signal (z-score),[5],-0.536
same,glycan array binding signal (z-score),[6],-0.382
same,glycan array binding signal (z-score),[7],-0.88
same,glycan array binding signal (z-score),[8],-0.892
same,glycan array binding signal (z-score),Gal(b1-3)GlcNAc,-0.575
same,glycan array binding signal (z-score),[9],-0.379
same,glycan array binding signal (z-score),[10],0.113
same,glycan array binding signal (z-score),[11],-0.113
same,glycan array binding signal (z-score),[12],-0.384
same,glycan array binding signal (z-score),[13],-0.469
same,glycan array binding signal (z-score),[14],-0.358
same,glycan array binding signal (z-score),[15],0.043
same,glycan array binding signal (z-score),[16],-0.499
same,glycan array binding signal (z-score),[17],-0.658
same,glycan array binding signal (z-score),[18],-0.72
same,glycan array binding signal (z-score),[19],-0.813
same,glycan array binding signal (z-score),[20],-0.467
same,glycan array binding signal (z-score),[21],0.874
same,glycan array binding signal (z-score),[22],-0.297
same,glycan array binding signal (z-score),[23],0.004
same,glycan array binding signal (z-score),[24],-0.872
same,glycan array binding signal (z-score),[25],-0.033
same,glycan array binding signal (z-score),Gal(b1-4)Glc,-0.327
same,glycan array binding signal (z-score),Gal(b1-4)Glc6S,-0.52
same,glycan array binding signal (z-score),Gal(b1-4)GlcNAc,-0.573

# Looked up one by one from the entries so far:
binder,measurement,setting,value
B1,glycan array binding signal (z-score),Gal(b1-4)Glc6S,-0.52
same,glycan array binding signal (z-score),Gal(b1-3)GlcNAc,-0.575
